Drawing on article PMC5996148, this text covers binding signal for 1 sequence.

Among the test systems are CYB5R3 (human); CYFIP2 (human); CYP20A1 (human); CYP26A1 (human); CYP26B1 (human); CYP27A1 (human); CYP4F11 (human); CYTL1 (human).
Holding throughout (experiment): protein microarray (ProtoArray v5.0), streptavidin-Alexa Fluor 647
Holding throughout (conditions): 3'-biotin; 20 mM Tris (pH 7.5), 5 mM MgCl2, 100 mM KCl, 0.1% Tween-20, A/T-rich and random oligonucleotide blockers; temperature not stated; high values mean tight binding

A further assay concerns the target T1, CYB5R4 (UniProt Q7L1T6).
T1 sequence: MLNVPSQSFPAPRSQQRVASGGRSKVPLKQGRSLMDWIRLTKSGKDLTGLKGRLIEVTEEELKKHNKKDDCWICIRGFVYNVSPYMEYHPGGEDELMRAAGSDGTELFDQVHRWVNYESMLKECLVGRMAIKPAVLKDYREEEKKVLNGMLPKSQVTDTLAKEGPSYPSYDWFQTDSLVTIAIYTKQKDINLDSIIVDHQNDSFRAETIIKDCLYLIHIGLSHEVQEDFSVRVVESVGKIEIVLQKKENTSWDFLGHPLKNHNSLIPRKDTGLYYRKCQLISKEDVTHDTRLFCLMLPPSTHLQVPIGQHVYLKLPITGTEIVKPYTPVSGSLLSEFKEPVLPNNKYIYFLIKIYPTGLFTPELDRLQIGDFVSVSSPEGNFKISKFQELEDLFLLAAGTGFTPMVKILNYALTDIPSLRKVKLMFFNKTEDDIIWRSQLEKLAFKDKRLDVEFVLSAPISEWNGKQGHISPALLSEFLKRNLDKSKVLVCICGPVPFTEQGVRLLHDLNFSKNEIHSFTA

The next assay concerns the target T2, CYP1A1 (UniProt P04798).
T2 sequence: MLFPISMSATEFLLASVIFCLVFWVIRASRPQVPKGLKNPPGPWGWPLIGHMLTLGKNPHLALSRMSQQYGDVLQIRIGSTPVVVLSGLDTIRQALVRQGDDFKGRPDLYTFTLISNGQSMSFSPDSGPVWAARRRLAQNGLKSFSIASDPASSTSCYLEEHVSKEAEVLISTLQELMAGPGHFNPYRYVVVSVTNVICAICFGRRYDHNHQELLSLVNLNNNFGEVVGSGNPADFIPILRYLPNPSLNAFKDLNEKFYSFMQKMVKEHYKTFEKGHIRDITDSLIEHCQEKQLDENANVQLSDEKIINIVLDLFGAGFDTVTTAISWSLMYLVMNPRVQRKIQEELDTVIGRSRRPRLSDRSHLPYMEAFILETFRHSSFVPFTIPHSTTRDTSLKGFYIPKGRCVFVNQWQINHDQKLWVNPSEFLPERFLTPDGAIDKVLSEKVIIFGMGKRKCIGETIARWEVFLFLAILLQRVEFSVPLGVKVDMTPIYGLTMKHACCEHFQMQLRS

“And” between values parts separate entries of the source, which are not always exact repeats. Equal values may be shown once. The list shows a part of the results. For some of these results: The exact form of the protein is not confirmed.

Regarding “GGGAGGCTGAGGCAGG [G4-1 biotinylated (PQS2)]”, the binding signal in the assay on CYB5R3 (human) is -0.331 z-score; with CYB5R4, -0.324 z-score; in the assay with CYFIP2 (human), -0.363 z-score; with CYP1A1 it was -0.313 z-score; in the assay on CYP20A1 (human) it was -0.335 z-score and -0.332 z-score; in the assay on CYP26A1 (human), -0.276 z-score. The binding signal with CYP26B1 (human) was -0.301 z-score; in the assay on CYP27A1 (human), -0.308 z-score; in the assay with CYP4F11 (human), -0.317 z-score; with CYTL1 (human), -0.334 z-score.
